Results published in patent publication US20170088851A1, “METHODS FOR IMPROVING ABIOTIC STRESS RESPONSE” (The Regents of the University of California, priority 2011, published 2017).

B1: VRN2-HA: HA-tagged Arabidopsis …ON (VRN)2, an MC- protein (protein, UniProt Q8W5B1 1-440, looked up)
Polycomb group protein …: MCRQNCRAKSSPEEVISTDENLLIYCKPVRLYNIFHLRSLGNPSFLPRCLNYKIGAKRKRKSRSTGMVVFNYKDCNNTLQRTEVREDCSCPFCSMLCGSFKGLQFHLNSSHDLFEFEFKLLEEYQTVNVSVKLNSFIFEEEGSDDDKFEPFSLCSKPRKRRQRGGRNNTRRLKVCFLPLDSPSLANGTENGIALLNDGNRGLGYPEATELAGQFEMTSNIPPAIAHSSLDAGAKVILTTEAVVPATKTRKLSAERSEARSHLLLQKRQFYHSHRVQPMALEQVMSDRDSEDEVDDDVADFEDRQMLDDFVDVNKDEKQFMHLWNSFVRKQRVIADGHISWACEVFSRFYEKELHCYSSLFWCWRLFLIKLWNHGLVDSATINNCNTILENCRNTSVTNNNNNSVDHPSDSNTNNNNIVDHPNDIKNKNNVDNKDNNSRDK
modifications: HA tag
notes: HA-tagged Arabidopsis …ON (VRN)2, an MC- protein
B2: VRN2^c2A-HA: VRN2-HA with C2A mutation (protein, UniProt Q8W5B1 1-440, looked up, variant C2A)
Polycomb group protein …: B1 Polycomb group protein … with C2A
modifications: HA tag
notes: VRN2-HA with C2A mutation
B3: MAF5-HA: HA-tagged MADS AFFECTING FLOWERING(MAF)5 (protein, UniProt Q683D7 1-198, looked up)
Protein MADS AFFECTING …: MGRRRVEIKRIENKSSRQVTFCKRRNGLMEKARQLSILCGSSVALFIVSSTGKLYNSSSGDSMAKIISRFKIQQADDPETLDLEDKTQDYLSHKELLEIVQRKIEEAKGDNVSIESLISMEEQLKSALSVIRARKTELLMELVKNLQDKEKLLKEKNKVLASEVGKLKKILETGDERAVMSPENSSGHSPPETLPLLK
modifications: HA tag

What follows are molecules tested on N-end rule pathway of targeted proteolysis (NERP) (assay: In vitro protein stability, heterologous rabbit reticulocyte lysate assay (TNT T7 Coupled Reticulocyte Lysate system, anti-HA immunoblot)). Settings: no inhibitor.
Type: biochemical
Experimental: Protein stability analyses. Full length cDNAs were PCR amplified from either Arabidopsis thaliana or Oryza sativa L. (cv. M202 (Sub1)). N-terminal mutations were introduced using a specific forward primer. For in vitro assays, cDNAs were cloned into a modified version of the pTNT vector (Promega) to produce C-terminal HA fusions. Stability assays were performed using the TNT T7 Coupled Reticulocyte Lysate system (Promega), essentially as described previously^23. For in vivo analysis of EIRE-HA proteins, cDNAs were cloned into pE2c, mobilized into pB2GW7 and transformed into Arabidopsis using the floral dip method. To Assess relative protein stability, equal amounts of total protein extracted from 7-day old T3 homozygous seedlings were analyzed by Western blot, and cDNA synthesized from total RNA was used as a template for semi-quantitative PCR.
In vitro analysis of protein stability: To generate Arabidopsis and rice protein-HA fusions driven by the T7 promoter, cDNAs were PCR amplified from Arabidopsis total cDNA or submerged rice cDNA (M202 (Sub1); as described^3 and ligated into a modified version of the pTNT […] expression vector (pTNT3xHA). N-terminal mutations were incorporated by changing the forward primer sequences accordingly (Table 1). Proteins were expressed in vitro using the TNT T7 Coupled Reticulocyte Lysate system (Promega) according to manufacturer's guidelines, using 500 ng plasmid template. Where appropriate, 100 μM MG132 or 1 mM dipeptides (arg-β-ala or ala-ala; Sigma-Aldrich) and […] Bestatin (Sigma-Aldrich) were added. Reactions were incubated at 30° C., and samples were taken at appropriate time points before mixing with protein loading dye to terminate protein synthesis. Equal amounts of each reaction were subjected to anti-HA immunoblot analysis.
Immunoblotting: Proteins resolved by SDS-PAGE were transferred to PVDF using a MiniTrans-Blot electrophoretic transfer cell (Bio-Rad). […]

Question: B1 was tested. Which “in vitro stability of the protein” value did it give?
Answer: degraded

Question: For B2, which “in vitro stability of the protein” value is on record?
Answer: stabilized

Question: Which “in vitro stability of the protein” value does the source give for B3 here?
Answer: stable

Changes are numbered by the printed parent chain. Numbers in names are those of the source.
